Measured values as given in PubChem BioAssay AID1347423 (Functional Genomics Laboratory (NCATS/FGL), 2020).
In all, about 52,000 sequences went through this assay and about 210 (0.4%) were called active.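 How the source made its calls: active means gene whose silencing raises cell survival under the drug, median off-target-corrected z-score across its silencing RNAs 2 or more; inactive means the rest.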 This is one part of the list.

Experiment: Resistance to Poly (ADP-Ribose) Polymerase inhibitor: Gene Identification via Genome-wide siRNA Screen
Settings: mouse BRCA2 R2336H ES cells, olaparib, CellTiter-Glo viability; active compounds read high
Summary of the method: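 Mouse BRCA2 R2336H ES cells were reverse-transfected with siRNA (20 nM final), treated at 48 h with 500 nM olaparib, and read by CellTiter-Glo after 72 h. Scores: MAD-based z per siRNA, median per gene, seed off-target correction.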

| Sequence | z-score |
| --- | --- |
| GCUGGAAGCAUUUGUUUUUTT against Uap1 | inactive: -0.0797 |
| GGCCGUUGUAUGAAGAGUATT against Ace2 | inactive: 0.374 |
| GGACAGCUUUCAUGGAAAATT against 2410016O06Rik | inactive: 1.32 |
| GGUUAUUAUAAUGAUCUGGTT against Wdr33 | inactive: -0.0353 |
| GGAUAUCAACAGAUACAUCTT against Serpina12 | inactive: 1.97 |
| GGAACUGCCCAUUCAUCUATT against Pramel6 | inactive: -1.5 |
| CCUUAUAAGAAAGAUAGACTT against Nhlrc2 | inactive: 1.06 |
| GGAGGUUGAGGCUUCUAAGTT against Pacsin3 | inactive: 1.56 |
| GGAAGACCCUAAGGACUAUTT against Stk23 | inactive: -0.035 |
| GGCAUUUAUUUACCCUAGATT against Pcdha11 | inactive: -0.999 |
| GCUCACAGAAACGACCCAUTT against Bicd1 | inactive: 0.356 |
| GGAGCAGACGAUAUGCAGATT against Copb2 | inactive: -3.79 |
| GCUUCACAAUUCCUGAUAATT against D6Ertd245e | inactive: 0.91 |
| CCAUGGACCAAAUGAAGUUTT against Cd44 | inactive: 1.02 |
| GGCAACCAUACUUCAUCUATT against 8430410A17Rik | inactive: -0.107 |
| GGCGGUCAAGUGAGGUUCUTT against Hhex | inactive: -0.207 |
| GGGAACAUAGAGUUGAUCCTT against Map17 | inactive: -0.0915 |
| GGUUCCAACCGAUAAGUAUTT against Fh1 | inactive: -1.96 |
| GGGACUCAUUGCUAACUCATT against C430013M08Rik | inactive: -0.852 |
| CCCAAGGUCCAGUUUGAUGTT against D14Ertd209e | inactive: -0.389 |
| GGACAUCACCUGUCAAAGUTT against Zar1 | inactive: 0.317 |
| GCACUUCAACCCUAACAUUTT against Acp2 | inactive: 1.4 |
| GGGUUUUACCAUGGAAUUCTT against 2810046C01Rik | inactive: -1.83 |
| GGUUGUGACUUCACGUUCCTT against Sult1a1 | inactive: 0.591 |
| GCACUCACACAUUAAGAGATT against 2310042N02Rik | inactive: -0.523 |
| CCUACUCCUUCUUGAUUUATT against Lpl | inactive: -0.153 |

| Sequence | z-score |
| --- | --- |
| GGCCUGGAUCAUUGUGGUGTT against 2810025M15Rik | inactive: 0.523 |
| GGAUAUUCAGCACUGGGAATT against Rrm2 | inactive: -1.9 |
| GCUAUUUAUCACCAAGACATT against 4932443D16Rik | inactive: 0.0165 |
| GGAAGUUCAAGAAGAUCAUTT against D1Ertd396e | inactive: -2.92 |
| GGUAUCAUGCUGAGAGAGATT against B4galt6 | inactive: 1.12 |
| CCAAUUGCUAAUCCUUUGUTT against Pin1 | inactive: 0.609 |
| GCUACUGUCAAGUAUGGAATT against Dscr2 | inactive: 0.11 |
| GGAGAUUAUGAAAGAUUUGTT against Pank3 | inactive: 1.23 |
| GGACCAUCCCUGUUUUAUATT against Ifrd2 | inactive: 0.798 |
| GCAAUCGAUGCAUUUAAUGTT against Pex2 | inactive: 0.669 |
| GGAAUAUACGAAUCACAGATT against 4930478A21Rik | inactive: -0.0969 |
| GGAGUCCUCUAUGUGCAGATT against Pla2g4b | inactive: -1.03 |
| GGGAUGGACUUUUGACUGATT against V1rh13 | inactive: -0.714 |
| GUUUGCUGCUAUCUCUUUUTT against Atp6v0e | inactive: -0.0811 |
| GGAGUGGAGUUCAACAUUGTT against Atox1 | inactive: 0.269 |
| GGCAUUUUCCACAUGCGGCTT against Olfr139 | inactive: 0.814 |
| GGUGCAAGAACACUAUGAUTT against U2af1l4 | inactive: 0.00628 |
| GGAAGAUUUAUUUCACGGATT against 2310001A20Rik | inactive: -0.0405 |
| GGAAGGAAGUCAUUUUUUCTT against 8430410K20Rik | inactive: -0.357 |
| GGAGAGACUUGAGAUUGUCTT against Ptx3 | inactive: -2.6 |
| GGUCUGGGACUGAAGCACUTT against Sec14l3 | inactive: -0.303 |
| GGCCAACUUGAGAUUGUCUTT against Wdr68 | inactive: 0.437 |
| GCCAUAUUCAAAUAACUGATT against Tor3a | inactive: -1.46 |
| GGAGAUUUUCAAGAGACUCTT against 0610010F05Rik | inactive: 0.657 |
| CGUGGGCUCUGUUGACAUUTT against Olfr492 | inactive: -0.593 |
| GGAAGUGUGACUUGAUUGCTT against AW413431 | inactive: -1.12 |

2 entries from above, as tab-separated lines.
Sequence	z-score
GGUUAUUAUAAUGAUCUGGTT against Wdr33	inactive: -0.0353
GGAUAUCAACAGAUACAUCTT against Serpina12	inactive: 1.97

A portion taken from the entries so far, as a working copy:

| Sequence | z-score |
| --- | --- |
| GGCAUUUAUUUACCCUAGATT against Pcdha11 | inactive: -0.999 |
| GCUCACAGAAACGACCCAUTT against Bicd1 | inactive: 0.356 |
| GGAGCAGACGAUAUGCAGATT against Copb2 | inactive: -3.79 |

Further results

| Sequence | z-score |
| --- | --- |
| GGAUCAACGGAUUUUAGAATT against AW146020 | inactive: 0.294 |
| GGAUAAGCCUUAAGGAAAATT against Stard5 | inactive: -0.778 |
| GGUGGUGGAUGAUGAAGACTT against Myo7a | inactive: -0.461 |
| GGAUGACCUCAAGUAUAAGTT against Mobkl2b | inactive: 0.546 |
| GCAACCUUCAUUCGUAUAUTT against BC068281 | inactive: -0.854 |
| GCCAAAAUCAAGAUUUGCUTT against Angptl3 | inactive: -0.371 |
| GGAAGCAGAGAAAAUGUUCTT against Snrpa1 | inactive: -1.78 |
| CCUACGUCCAGUAGUGCAGTT against D030015G18Rik | inactive: -0.0797 |
| GGUCGUGAUAUUAUUGGGUTT against Ddx47 | inactive: -0.0395 |
| GGCUAAGGAAUGUCAAUAATT against 4922503E23Rik | inactive: -0.503 |
| CCUGGAUACCAAUGAUGAATT against Gprk2l | inactive: -1.95 |
| UGGCCACGACCCUGAACUUTT against Ghrhr | inactive: 1.81 |
| GGCCAAAAUGGUGUUGUUCTT against Oas1c | inactive: 1.42 |
| GGCUUACAUACAUACUAUGTT against Ddx3y | inactive: 0.414 |
| GGAGAACUUCAACAAUGUCTT against Tesc | inactive: 0.0465 |
| GGCAAAAACCAGGAUGAAUTT against 4932431F02Rik | inactive: -0.0173 |
| GGUCCAAGUUACAGCAAAATT against V1rg3 | inactive: 2.16 |
| CCAAGUGAUCUACAGUGAUTT against Mrc2 | inactive: 0.379 |
| GGUGGUAUCUGUAUUCUAUTT against Olfr1106 | inactive: 0.33 |
| GGUCUUCCAAGAAAAAGGCTT against a | inactive: 1.59 |
| GGCAUUUUCUAAUGGCUAUTT against C230086A09Rik | inactive: 0.373 |
| GGACCUCUUCCUGAUGGAUTT against Yap1 | inactive: -0.774 |
| GGGCCAGCAAGGAAAGAAUTT against Pitx2 | inactive: -1.73 |
| GGCUUACACAAAAAUCUGUTT against Camk2d | inactive: 0.128 |
| GGACUUUCUAAAUAGCUUCTT against Gucy1a3 | inactive: 3.09 |
| GGGAGACUUGUCAUGCACATT against Matp | inactive: 0.0324 |

| Sequence | z-score |
| --- | --- |
| GGUUCAAAUAUCACAUUGATT against B230206H07Rik | inactive: -1.83 |
| CCCAGAAGCCUUAUCGUCUTT against 2410129H14Rik | inactive: 0.663 |
| GGAUGAUCAAGACAAGCAGTT against Og2x | inactive: 1.94 |
| GGAAAAGCAUCUUCUCUUUTT against Rnf141 | inactive: 0.548 |
| GGAGGAGACUAUUUUCGCCTT against P42pop | inactive: 0.525 |
| GGGCUUGAUUUGAUCCUGGTT against 4933425L06Rik | inactive: -0.126 |
| GGGCAUUUUAACCAAAUGATT against 9630025C22 | inactive: 0.576 |
| GCGACUCACUGGGAACCUUTT against Col9a3 | inactive: 0.448 |
| GGAAAAAGGAGAGAAUGAATT against 4933417K05Rik | inactive: -1.28 |
| GGUUGUGGAAUGCAUCGGATT against 1110019I14Rik | inactive: -1.76 |
| GGAUAAUGUGGUCAUAGUATT against Ap3m1 | inactive: -1.09 |
| GGAUAGCUCAUGAUGCUGUTT against Usp13 | inactive: 1.18 |
| CCCAAACCAAUUUGUGCCUTT against Add2 | inactive: -0.0473 |
| GGUGGUUUUAAAGUGCUGGTT against 9930019B18Rik | inactive: -0.707 |
| GGAGGAUCCUGCUAUUCCATT against 4930583K01Rik | inactive: -0.242 |
| GGAAGAAGGCAGUGCUGAUTT against Ap3d1 | inactive: -3.03 |
| GGAUCAGAUCUUGUGUGACTT against Trim16 | inactive: 1.1 |
| GGCACAACUCCCUUGUGAUTT against Tlr8 | inactive: -0.677 |
| GGAGAACUAUUUCUUCAUCTT against 5730511K23Rik | inactive: 2.28 |
| GGAGAGAUGUCCACAGCCUTT against Smarcal1 | inactive: -1.25 |
| CCAUGGUUACCGUGUACUATT against Olfr1513 | inactive: -0.901 |
| GGAGCCUUCACGGGUAUCATT against Slc6a9 | inactive: -2.57 |
| GGAAAAUGAAGGUUCAGAATT against Pkib | inactive: -0.608 |
| GGAUCUCACCCAACAGGCUTT against Samd7 | inactive: 0.197 |
| GGCUUAUCAUACCUGGUUGTT against Olfr691 | inactive: -0.327 |
